Source: paper PMC11625814
These are yes or no findings as the source states them, for the method shown. Binding seen in cells or lysates may run through a third protein. Some results given as binding are weak or reduced against the parent protein; the word gives no strength. For part of these data: Tags and fused reporters may be left off the sequences shown. One block for each molecule: values may come before it.

By UniProt entry, the sequences of proteins in these tests, tags left out.
UniProt Q2MJT0: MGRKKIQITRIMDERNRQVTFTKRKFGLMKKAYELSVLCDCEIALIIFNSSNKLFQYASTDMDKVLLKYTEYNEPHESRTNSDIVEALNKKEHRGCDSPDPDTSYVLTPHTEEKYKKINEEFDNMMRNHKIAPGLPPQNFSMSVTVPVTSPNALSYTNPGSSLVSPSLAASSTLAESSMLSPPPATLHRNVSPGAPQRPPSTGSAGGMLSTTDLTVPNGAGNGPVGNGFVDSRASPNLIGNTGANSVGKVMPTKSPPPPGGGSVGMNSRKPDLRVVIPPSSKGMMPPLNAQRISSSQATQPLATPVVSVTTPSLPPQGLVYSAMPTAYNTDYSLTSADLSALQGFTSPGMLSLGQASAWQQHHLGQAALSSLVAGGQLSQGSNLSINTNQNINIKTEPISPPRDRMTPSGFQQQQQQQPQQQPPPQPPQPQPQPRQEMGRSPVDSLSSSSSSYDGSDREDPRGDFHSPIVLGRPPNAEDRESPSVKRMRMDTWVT

Experiments:
[1] = molecular target: mAKAPα (AKAP6), A-kinase anchoring protein (rat (endogenous in primary hippocampal neurons)) (UniProt Q9WVC7); experiment: co-IP; 200 ug lysate protein of primary rat hippocampal neurons, anti-mAKAPα antibody overnight at 4°C, Protein A/G PLUS-Agarose, washed three times with PBS, immunoblot; steady state or 20 min 30 mM KCl; also with 5 uM cyclosporine A, mAKAPα shRNA lentivirus, AAV2-GFP-CBD or AAV2-GFP
[2] = molecular target: mAKAPα (AKAP6), A-kinase anchoring protein (rat (endogenous in primary hippocampal neurons)) (UniProt Q9WVC7); experiment: co-IP; as a1 (anti-mAKAPα immunoprecipitate from primary rat hippocampal neurons, blot for NFATc4), with 1 mM EDTA to chelate Ca2+
[3] = molecular target: mAKAPα (AKAP6), A-kinase anchoring protein (rat (endogenous in primary hippocampal neurons)) (UniProt Q9WVC7); experiment: co-IP; 200 ug lysate protein of primary rat hippocampal neurons, anti-mAKAPα antibody overnight at 4°C, Protein A/G PLUS-Agarose, washed three times with PBS, immunoblot; steady state or 20 min 30 mM KCl; also with 5 uM cyclosporine A, mAKAPα shRNA lentivirus, AAV2-GFP-CBD or AAV2-GFP; remark: listed apart in the source
[4] = molecular target: T1, GFP-(aa3-196), GFP-tagged peptide corresponding to amino acids 3-196 of mAKAPα (UniProt Q9WVC7); experiment: co-IP; COS-7 cells co-transfected with GFP-(aa3-196) and Flag-NFATc4, two days later immunoprecipitated with anti-GFP antibody and immunoblotted with anti-Flag antibody
T1 sequence: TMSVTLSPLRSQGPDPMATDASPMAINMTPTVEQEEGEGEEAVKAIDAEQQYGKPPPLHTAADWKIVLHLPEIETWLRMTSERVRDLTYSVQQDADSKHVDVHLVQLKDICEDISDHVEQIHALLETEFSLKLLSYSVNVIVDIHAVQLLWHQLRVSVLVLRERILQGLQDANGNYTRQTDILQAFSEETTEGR

Molecule: MEF2A (myocyte enhancer factor-2A) (from UniProt Q2MJT0 1-495)
binding [1]: binds

B3: Flag-NFATc4 (protein, UniProt Q14934 1-902)
chain: MGAASCEDEELEFKLVFGEEKEAPPLGAGGLGEELDSEDAPPCCRLALGEPPPYGAAPIGIPRPPPPRPGMHSPPPRPAPSPGTWESQPARSVRLGGPGGGAGGAGGGRVLECPSIRITSISPTPEPPAALEDNPDAWGDGSPRDYPPPEGFGGYREAGGQGGGAFFSPSPGSSSLSSWSFFSDASDEAALYAACDEVESELNEAASRFGLGSPLPSPRASPRPWTPEDPWSLYGPSPGGRGPEDSWLLLSAPGPTPASPRPASPCGKRRYSSSGTPSSASPALSRRGSLGEEGSEPPPPPPLPLARDPGSPGPFDYVGAPPAESIPQKTRRTSSEQAVALPRSEEPASCNGKLPLGAEESVAPPGGSRKEVAGMDYLAVPSPLAWSKARIGGHSPIFRTSALPPLDWPLPSQYEQLELRIEVQPRAHHRAHYETEGSRGAVKAAPGGHPVVKLLGYSEKPLTLQMFIGTADERNLRPHAFYQVHRITGKMVATASYEAVVSGTKVLEMTLLPENNMAANIDCAGILKLRNSDIELRKGETDIGRKNTRVRLVFRVHVPQGGGKVVSVQAASVPIECSQRSAQELPQVEAYSPSACSVRGGEELVLTGSNFLPDSKVVFIERGPDGKLQWEEEATVNRLQSNEVTLTLTVPEYSNKRVSRPVQVYFYVSNGRRKRSPTQSFRFLPVICKEEPLPDSSLRGFPSASATPFGTDMDFSPPRPPYPSYPHEDPACETPYLSEGFGYGMPPLYPQTGPPPSYRPGLRMFPETRGTTGCAQPPAVSFLPRPFPSDPYGGRGSSFSLGLPFSPPAPFRPPPLPASPPLEGPFPSQSDVHPLPAEGYNKVGPGYGPGEGAPEQEKSRGGYSSGFRDSVPIQGITLEEVSEIIGRDLSGFPAPPGEEPPA
binding [4]: binds

Now from value to molecule:

binding [1]: binds
Molecule: calcineurin catalytic subunit Aα (CaNAα) (from UniProt P63329 1-521) (enzyme)

binding [2]: no binding (condition: with 1 mM EDTA)
binding [3]: binds
B1: NFATc4 (nuclear factor of activated T-cells c4) (protein, UniProt D3Z9H7 1-901)
chain: MGAASCEDEELEFKLVFGEEKEAPPLGPGGPGEELDSEDAPPCCRLALGEPLPYGAAPIGIPRPPPPRPGMHSPPPRPAPSPGTWESQPPRSVRLGGPGGTAGGTGGGRVLECPSIRITSISPTPDPPTSLEDAPETWGDGSPRDYPPPEGFGGYREAGGQGGGAFFSPSPGSSSLSSWSFFSDASDEAALYAACDEVESELNEAASRFGLSSPLPSPRASPRPWTPEDPWSLYGPSSGGRAPEDSWLLLSAPGPIPASPRPASPCGKRRYSSSGTPSSASPALSRRGSLGEEGPEPPPPPPLPLVRDPSSSGPFDYVGAPPTESVPQKTRRTSSEQAVALPRSEEPASCNGKLPSGTEDSVAAPGALRKEMAGMDYLAVPSPLAWSKARIGGHSPIFRTSALPPLDWPLPSQYEQLELRIEVQPRAHHRAHYETEGSRGAVKAAPGGHPVVKLLGYNEKPLTLQMFIGTADERSLRPHAFYQVHRITGKMVATASYEAVVSGTKVLEMTLLPENNMAANIDCAGILKLRNSDIELRKGETDIGRKNTRVRLVFRVHVPQGGGKVVSVQAASVPIECSQRSAQELPQVEAYSPSACSVRGGEELVLTGSNFLPDSKVVFIERGPDGKLQWEEEAAVNRLQSSEVTLTLTIPEYSNKRVSRPVQVYFYVSNGRRKRSPTQSFKFLPVIFKEEPLPDSSLRGFPSTSGPPFGPDMDFSPPRPPYPSYPHEDPAYETPYLSEGFGYSTPALYPQTGPPPSYRSGLRMFPETGGTTGCARLPSVSFLPRPFPGDQYGGQGSSFPLGLPFSPPAPFRPPLPSSPPLEDPFNPQSAVHPLPAEGYNEVGPGYTPGEGASEQEKSRGGYGSGFRDNVPIQGITLEEVSEIIGRDLSGFPARPGEEPPA

binding [3]: binds
B2: phosphorylated NFATc4 (S289) (protein, UniProt D3Z9H7 1-901)
chain: B1 chain
modifications: phosphoserine at 289
